The subject of the series is ZDF fa/fa rats. Description: 21-day ZDF fa/fa study: body weight, food and water intake. The class given is in vivo, rat.

With `N[C@@H](CC(=O)N1CCn2c(nnc2C(F)(F)F)C1)Cc1cc(F)c(F)cc1F` [sitagliptin, reference compound], where the note is “10 mg/kg p.o. 1×/daily”, the water consumption is given as 48+/−7 ml/rat/day. Under “10 mg/kg p.o. 1×/daily, day 21”, the food consumption was 31+/−2 g/rat/day and the “percent increase in body weight” value is 10+/−2%.

B1: 5F12G1: murine monoclonal anti-BKB2R antibody (IgG2b,κ), VH comprising SEQ ID NO:1, VL comprising SEQ ID NO:2 (antibody, listed as Mus musculus, V domains shown)
VH: EVKLEESGGGLVQPGGSMKLSCVVSGFTFSDYWMSWVRHSPEMGLEWVAEIRLKSDNYATHYAESVKGRFTISRDDSKSRLYLQINSLRGEDTGIYYCTRDYYAMEYWGQGTSVTVSS
VL: DVVMTQTPLSLPVSLGDQASISCRSSQTIVHSNGKTYLEWYLQKPGQSPKLLIYKVSNRFSGVPDRFSGSGSGTEFTLKISRVETEDLGVYYCFQASHVPYTFGGGTKLEIK
Regarding B1, the food consumption by setting is: (0.008 mg/kg s.c. every 3 days, day 21) 30+/−0.5 g/rat/day; (0.04 mg/kg s.c. every 3 days, day 21) 27+/−2 g/rat/day; (0.2 mg/kg s.c. every 3 days, day 21) 28+/−1 g/rat/day. In addition, the water consumption is given as 40+/−10 ml/rat/day (0.04 mg/kg s.c. every 3 days); 26+/−3 ml/rat/day (0.2 mg/kg s.c. every 3 days); 28+/−4 ml/rat/day (third dosage group, dose not printed at the value (0.008 mg/kg)). For the same molecule, the “percent increase in body weight” value (all dosage groups (0.2, 0.04, 0.008 mg/kg s.c. every 3 days), by day 21) is ~13+/−1%.
